Results reported in patent US20160046678A1 (ZYNGENIA, published 2016).
These are yes or no findings as the source states them, for the method shown. Some binding calls cover weakened binding; strength is not graded here.

The chains behind the UniProt entries cited, without tags or fusion partners. Residues count along the entry.
UniProt P05231, residues 30-212: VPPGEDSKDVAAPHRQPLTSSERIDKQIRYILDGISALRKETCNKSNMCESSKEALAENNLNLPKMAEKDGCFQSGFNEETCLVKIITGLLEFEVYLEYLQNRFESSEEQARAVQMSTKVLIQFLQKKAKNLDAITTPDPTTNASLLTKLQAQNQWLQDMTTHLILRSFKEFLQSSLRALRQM

Target: IL6 (UniProt P05231)
Experiment: MRD identification, Example 48

binding, binds:
SFLFYSSCVWDPLLMQCG [ILB429]
AALECPWDPLMMSCIKTS [ILB452]
SMTMCGWNPLGMWCHSLG [ILB426]
TLDNCAWDPLLMRCWGQW [ILB430]
TLVSLGLCAWDPLLMSCA [ILB428]
LCLWDALLMECRIHSFDS [ILB423]
SYQVCCWDPLLMTCQRAR [ILB419]
HLSLLMDCCWDPLTMQCT [ILB454]
FCVWDPLLMHCRFTHDRM [ILB425]
VFPWCYWDPLMMDCAIQN [ILB445]
SYLGGLACAWDPLLMQCI [ILB440]
YLPSWLSCSWDPLLMICS [ILB453]
RCPWDPLMMMCIEEMYTD [ILB432]
SSIYCLWDPLLMRCATPL [ILB431]
SNPICIWDPLLMRCIWYQ [ILB410]
TCAWDPLLMVCRYPCPAF [ILB451]
YHWQLNGCVWHPLMINCL [ILB421]
STRDCYWDPLLMTCINYI [ILB418]
QSFLMRGCAWDPLLMQCI [ILB412]
QLFLTLNCSWDPLLMQCL [ILB439]
GFPECFWDPLLMDCTYWF [ILB441]
LVVNCPWDPLLMACAVNV [ILB414]
FCVWDPLLMDCSGNTFYF [ILB450]
FFCLWHFCTGDPLKIHCM [ILB437]
LCSWDPLMMRCVVMDSLD [ILB436]
